According to US20110300147A9, “Inhibiting tumor cell invasion, metastasis and angiogenesis” (The Scripps Research institute, priority 2005, published 2011):
At least one compound was matched to its structure with a doubt left. Numbered stars: 1 amine (or outer) side, 2 acyl side, 3 side chain; on linkers, the order of the positions; unused ones are H or OH. Peptide text beside a SMILES is read from it. * marks the point of attachment. Doxorubicin(3'-N) = COc1cccc2c1C(=O)c1c(O)c3c(c(O)c1C2=O)C[C@@](O)(C(=O)CO)C[C@@H]3O[C@H]1C[C@H](N*)[C@H](O)[C@H](C)O1; Suc = O=C(CCC(=O)[*:2])[*:1]

Columns and labels:
4T1 mammary carcinoma = assay: primary 4T1 tumor and spontaneous lung metastasis model; format: in vivo, BALB/c mice; details: LEG-3 100 μg/100 μl every two days for two weeks
Description: Primary 4T1 tumors are generated by subcutaneous injection of 5×10^5 4T1 cells in the right flank of six-week-old BALB/c mice. Two different groups of four animals were treated between days 9 and 27 after tumor induction. The treatments were 100-μl […] injections of PBS alone (control group) or LEG-3 100 μg/100 μl in PBS by intraperitoneal injection every two days for two weeks. Tumor volumes of treated animals were measured every two-day starting on day 9 by microcaliper measurements (volume=width×length×width/2). As soon as the tumor volume reached 1400 mm^3 in the control groups (on day 30th), euthanasia was performed and lungs were removed and fixed in the Bouin's solution. Lung metastases were counted by anatomy microscope. Statistical significance between treatment groups was determined by two-tailed Student's t tests using Microsoft EXCEL software.
Tumor induction was performed by subcutaneous injection of 5×10^5 4T1 cells in the right flank mammary fat pat of six-week-old BALB/c mice. […] Tumor volumes of treated animals were measured everyday starting on day 6 by micro-caliper measurements (volume=width×length×width/2). […] Lung metastases were counted by anatomy microscope. The statistical significance between treatment and control groups was determined by two-tailed Student's t tests using Microsoft EXCEL software.

legumain = molecular target: T1, legumain (Homo sapiens, UniProt Q99538); assay: cleavage of LEG compounds by legumain; format: biochemical
T1 sequence (Q99538 18-323): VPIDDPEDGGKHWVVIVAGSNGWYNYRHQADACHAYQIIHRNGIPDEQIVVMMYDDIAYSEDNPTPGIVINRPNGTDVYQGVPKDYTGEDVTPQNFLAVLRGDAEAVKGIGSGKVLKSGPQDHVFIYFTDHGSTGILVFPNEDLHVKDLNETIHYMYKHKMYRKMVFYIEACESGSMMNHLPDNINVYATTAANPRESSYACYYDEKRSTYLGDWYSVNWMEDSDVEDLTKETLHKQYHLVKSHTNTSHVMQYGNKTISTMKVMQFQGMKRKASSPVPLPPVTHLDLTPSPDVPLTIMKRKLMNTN

4T1 breast cells = assay: 4T1 experimental lung metastasis model; format: in vivo, BALB/c mice; details: LEG-3 100 μg/100 μl i.p. daily for two weeks
Description: A lung metastasis model was induced experimentally by injecting a cell suspension of 4T1 breast cells (1×10^5) suspended in 0.1 ml serum free medium into the tail vein of six-week-old female BALB/c mice. The mice were treated with 100-μl intraperitoneal injections of either PBS alone (control group) or LEG-3 (100 μg/100 μl) daily for two weeks.
4T1 Lung Experimental Metastasis was generated by suspending 4T1 cells (1×10^5) in 0.1 ml serum-free medium and injecting these cells into the tail vein of mice under the anesthesia. Treatment involved 100 μl intraperitoneal injection of either saline alone (control group) or AEPI-1 (treatment group). The AEPI-1 treatment group was given 100 μg AEPI-1 in saline (100 ul) by intraperitoneal injection daily for two weeks. All mice were euthanized by CO2 and lungs were removed, weighted and fixed in the Bouin's solution. Lung metastases were counted by anatomy microscope.

[1] = test system: HT1080 human fibrosarcoma; assay: HT1080 human fibrosarcoma xenograft; format: in vivo, Balb/c nu/nu mice; details: LEG-3 49.4 μmol/kg
[2] = test system: MDA-PCa-2b human prostate carcinoma; assay: MDA-PCa-2b human prostate carcinoma xenograft; details: LEG-3 49.4 μmol/kg

Q: For COc1cccc2c1C(=O)c1c(O)c3c(c(O)c1C2=O)C[C@@](O)(C(=O)CO)C[C@@H]3O[C@H]1C[C@H](NC(=O)[C@H](CC(C)C)NC(=O)[C@H](CC(N)=O)NC(=O)[C@H](C)NC(=O)[C@H](C)NC(=O)CCC(=O)O)[C@H](O)[C@H](C)O1 [LEG-3] (Suc-AANL-{Doxorubicin(3'-N)}), which “mouse mammary carcinoma growth” value (4T1 mammary carcinoma) is on record?
A: suppressed

Q: What about the spontaneous lung metastasis (4T1 mammary carcinoma) of the same compound?
A: significantly reduced

Q: What about the cleavage by legumain (legumain) of the same compound?
A: are cleaved by legumain

Q: And the experimental lung metastasis (4T1 breast cells)?
A: substantially no metastasis

Q: What about the tumoricidal activity [1] of the same compound?
A: potent tumoricidal activity

Q: What about the tumor growth [2] of the same compound?
A: complete growth arrest
